Taken from: PubChem BioAssay AID493246 (Drosophila RNAi Screening Center, 2011)
The screen tested about 21,000 reagents; shown is an unselected part of those that have a named target and a result. In the full data, 429 (2%) were called active. 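Values are raw and not normalised between plates; calls rest on per-plate z-scores that were not deposited.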 Reagent sequences are not shown. The record does not give: the amount of reagent, the time to read-out.

Assay: 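Genome-wide search for dsRNAs that reduce cell number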 (primary screen)
Cells: Drosophila Kc and S2R+ cells
Reagent: long dsRNA against Drosophila genes
Measured: 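Raw, unnormalised count of remaining cells in each well; per-plate z-scores of cell number underlie the calls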
Direction: Kc cell number and S2R+ cell number: higher = more cells remaining
Rule for the call: 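Counted as a hit if cell number falls by a z-score of at least 3 within its plate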

After knock-down of CG11248 [DRSC11644], the screen gave Kc cell number, rep 1 = 1.53e6; Kc cell number, rep 2 = 1.58e6; S2R+ cell number, rep 1 = 1.18e6; S2R+ cell number, rep 2 = 1.27e6; inactive.
After knock-down of SIFa [DRSC04480], the record shows Kc cell number, rep 1 = 1.58e6; Kc cell number, rep 2 = 1.61e6; S2R+ cell number, rep 1 = 1.26e6; S2R+ cell number, rep 2 = 1.52e6; inactive.
For CG3769 [DRSC02723] the deposit lists Kc cell number, rep 1 = 1.49e6; Kc cell number, rep 2 = 1.55e6; S2R+ cell number, rep 1 = 1.23e6; S2R+ cell number, rep 2 = 1.38e6; inactive.
CG15631 [DRSC00466] showed Kc cell number, rep 1 = 1.49e6; Kc cell number, rep 2 = 1.41e6; S2R+ cell number, rep 1 = 1.08e6; S2R+ cell number, rep 2 = 1.26e6; inactive.
After knock-down of Cpr65Eb [DRSC11026] the results were Kc cell number, rep 1 = 1.27e6; Kc cell number, rep 2 = 1.18e6; S2R+ cell number, rep 1 = 1.25e6; S2R+ cell number, rep 2 = 1.21e6; inactive.
Against Exd2 [DRSC16105] the deposit lists Kc cell number, rep 1 = 1.41e6; Kc cell number, rep 2 = 1.43e6; S2R+ cell number, rep 1 = 1.21e6; S2R+ cell number, rep 2 = 1.26e6; inactive.
CG3999 [DRSC15534] scored Kc cell number, rep 1 = 1.51e6; Kc cell number, rep 2 = 1.46e6; S2R+ cell number, rep 1 = 1.30e6; S2R+ cell number, rep 2 = 1.39e6; inactive.
Against Cyp6g1 [DRSC07386] the deposit lists Kc cell number, rep 1 = 1.31e6; Kc cell number, rep 2 = 1.35e6; S2R+ cell number, rep 1 = 9.93e5; S2R+ cell number, rep 2 = 1.06e6; inactive.
CG4477 [DRSC10425] scored Kc cell number, rep 1 = 1.59e6; Kc cell number, rep 2 = 1.73e6; S2R+ cell number, rep 1 = 1.19e6; S2R+ cell number, rep 2 = 1.30e6; inactive.
For Mcm7 [DRSC11219], the values are Kc cell number, rep 1 = 1.31e6; Kc cell number, rep 2 = 1.45e6; S2R+ cell number, rep 1 = 1.18e6; S2R+ cell number, rep 2 = 1.04e6; inactive.
Cbp20 [DRSC16601] scored Kc cell number, rep 1 = 1.39e6; Kc cell number, rep 2 = 1.48e6; S2R+ cell number, rep 1 = 7.78e5; S2R+ cell number, rep 2 = 7.96e5; inactive.
After knock-down of Hasp [DRSC02022], the record shows Kc cell number, rep 1 = 1.42e6; Kc cell number, rep 2 = 1.49e6; S2R+ cell number, rep 1 = 1.32e6; S2R+ cell number, rep 2 = 1.37e6; inactive.
After knock-down of CG11723 [DRSC00324], the record shows Kc cell number, rep 1 = 1.28e6; Kc cell number, rep 2 = 1.21e6; S2R+ cell number, rep 1 = 8.37e5; S2R+ cell number, rep 2 = 7.46e5; inactive.
Silencing of CG13856 [DRSC14706] gave: Kc cell number, rep 1 = 1.26e6; Kc cell number, rep 2 = 1.25e6; S2R+ cell number, rep 1 = 1.15e6; S2R+ cell number, rep 2 = 1.22e6; inactive.

Part of the list above, limited to “Kc cell number, rep 2”:
CG4477 [DRSC10425]: 1.73e6
Mcm7 [DRSC11219]: 1.45e6
